Test results from PubChem BioAssay AID493014 (National Center for Advancing Translational Sciences (NCATS), 2011).
This is one part of the list. Further columns of the screen follow, without active or inactive calls. The list favours compounds with an active or inconclusive main result. The note in brackets gives the kind of curve behind each potency; many fits are weak.

Experiment: qHTS Assay to Find Inhibitors of Chronic Active B-Cell Receptor Signaling
Settings: ABC-DLBCL IkBa-CBG/CBR reporter, luminescence ratio (green luciferase fused to IkBa over red control in TMD8 lymphoma cells), 4 h
Outline: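 TMD8 ABC-DLBCL cells carrying doxycycline-inducible green luciferase fused to IkappaBalpha plus unfused red luciferase were exposed to compounds (up to 46 uM) for 4 hrs at 37C. Activity came from the overlap-corrected green/red luminescence ratio.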

[1] = measured here: CBR red luminescence, cell number
[2] = measured here: IkBa-CBG green luminescence

Compound: COc1ccccc1/C=C1/SC(=O)N(CCC(=O)Nc2ccc(S(=O)(=O)Nc3nccs3)cc2)C1=O
- AC50 [1]: 16.4 µM [falling, partial curve]
- AC50 [2]: 32.6 µM [falling, partial curve, poor fit]

Compound: O=C(CCN1Cc2ccccc2C1)c1ccc2c(c1)OCCO2
- AC50 [1]: 22.4 µM [falling, single point]
- AC50 [2]: 35.5 µM [rising, partial curve, poor fit]

Compound: CCOc1ccccc1NC(=O)CSc1nnc(-c2ccco2)n1Cc1ccco1
- AC50 [1]: 15.8 µM [falling, single point]

Compound: CC1CN(c2nnc(NC(=O)c3ccccc3)s2)CC(C)O1 (centres undefined)
- AC50 [1]: 10 µM [falling, partial curve, poor fit]

Compound: CCOC(=O)COc1cc(-n2c(=S)[nH]c3cc(OC)c(OC)cc3c2=O)c(Cl)cc1Cl
- AC50 [1]: 35.5 µM [falling, single point]
- AC50 [2]: 35.5 µM [rising, partial curve, poor fit]

Compound: Cc1ccc(N2CC(=O)Nc3c(sc4nc(C)cc(C)c34)C2=O)cc1
- AC50 [1]: 7.94 µM [rising, partial curve, poor fit]

Compound: O=C(N/N=C/c1ccc(N2CCCCC2)o1)c1ccccc1[N+](=O)[O-]
- AC50 [1]: 20.6 µM [falling, partial curve]

Compound: COc1cccc(C2CC(c3ccccc3Cl)n3nnnc3N2)c1 (centres undefined)
- AC50 [1]: 16.4 µM [falling, partial curve]

Compound: Clc1ccc(Cc2nc(-c3ccncc3)no2)cc1
- AC50 [1]: 35.5 µM [rising, single point]

Compound: CCOC(=O)c1c(/N=C/c2ccc(C)cc2O)sc2c1CCC2
- AC50 [1]: 29.1 µM [rising, single point]

Compound: O=C1C[C@H]2[C@H](CO)[C@@H](OC(=O)c3ccc(-c4ccccc4)cc3)C[C@H]2O1
- AC50 [1]: 3.98 µM [rising, full curve, poor fit]

Compound: O=C(NN1C(=O)NC2(CCCCC2)C1=O)c1ccc(Cl)s1
- AC50 [1]: 0.92 µM [rising, full curve, poor fit]

Compound: Cc1ccc(C(=O)NCCn2cc(SCC(=O)Nc3cc(C)on3)c3ccccc32)cc1
- AC50 [1]: 20.6 µM [falling, single point]

Compound: CC(=O)Oc1ccccc1/C=C/c1ccc2ccccc2[n+]1C
- AC50 [1]: 22.4 µM [falling, single point]

Compound: COc1ccc(CNc2ncnc3c2c(-c2ccccc2)cn3-c2ccc(C)c(Cl)c2)cc1
- AC50 [1]: 35.5 µM [rising, single point]

Compound: Cc1cccc(C(=O)Oc2csc(=S)n2C(=O)c2cccc(C)c2)c1
- AC50 [1]: 29.1 µM [falling, single point]
